Patent US20210261642A1, “SOLUBILITY OF GLP-1 PEPTIDE” (Novo Nordisk A/S, priority 2017, published 2021)
Further values from the same series stand in other lists.

Test: Assay (I): Determination of Solubility (96-well plate, pH 3.0-11.0, organic solvent 0-70% w/w, UV absorption at 280 nm)
Assay type: physicochemical
Description: Assay (I): Determination of Solubility
96-Well Plate Preparation
96-well plates containing target peptide in a solid form were prepared in one of two ways:
Method 1 (evaporation): Addition of 100 μl stock solution of said peptide at a concentration of 4-6 mg/ml to each well of a 96-well half area plate (150 μl well size). Subsequently the solvent was evaporated by applying a vacuum until the solvent was completely removed.
Method 2 (precipitation): Addition of a certain volume of a stock solution of said peptide containing to each well of a 96-well half area plate followed by the addition of a certain volume of concentrated phosphoric acid to obtain a pH of 4.6 followed by addition of a certain volume of ethanol resulting in a final ethanol concentration of 20% v/v. Subsequently the plate was stored at 4° C. for 1 h and then centrifuged at 4,000 rpm for 20 min. Finally the supernatant was removed. The concentration of the stock solution was chosen in a way that the final amount of peptide after supernatant removal was >0.4 mg per well.
In both cases the stock solution was prepared by adding de-ionized water to a certain amount of powder of said peptide followed by a stepwise addition of small amounts of a concentrated sodium hydroxide solution until said peptide was completely in solution.
To determine solubility of a target peptide at different pH and organic solvent concentrations, two different buffer systems were used in independent experiments to cover the whole range from pH 3.0 to pH 11.0. Buffer system 1 covers pH 3.0-7.5 and buffer system 2 covers pH 7.5-11.0. For each buffer system 96 different solvent compositions were premixed in the following way: • 1. A low pH buffer (adjusted to either pH 3.0 or pH 7.5) and a high pH buffer (adjusted to either pH 7.5 or pH 11.0) were mixed at 8 different ratios to obtain values between pH 3.0 and pH 7.5 or pH 7.5 and pH 11.0, respectively. The total volume after mixing was 300 μl. • 2. 12 different amounts of organic solvent were then added to these buffers to obtain organic solvent (e.g. ethanol) concentrations between 0 and 70% w/w. • 3. Water was then added to obtain a total weight of 1.0 g of solvent in each well.
After preparing the 96 different solvent systems, 100 μl of each system was transferred to the 96-well plate containing the solid form of the target peptide (prepared as described in the section “96-well plate preparation”). The plate was then stored at a given temperature (between 5° C. and 70° C.) for a given time on a rotating shaker set to 400 rpm. At regular time intervals the plate was centrifuged (4,000 rpm for 10 min) and a 10 μl sample was taken from each well. The samples were then analysed by UV absorption at 280 nm for peptide quantification. Peptide concentration results are given as UV absorption at 280 nm of the sample subtracted UV absorption at 280 nm of a well comprising 10 μl water.
The buffers used were as follows: • Buffer system 1 (for the pH range from pH 3.0-7.5)
• Buffer system 2 (for the pH ranae from pH 7.5-11.0)
Solubility of liraglutide was determined using Assay (I) described herein. Liraglutide was prepared using Method 1 (evaporation) or Method 2 (precipitation) as described in subsection “96-well plate preparation”.

[1] = MeCN 44.5% w/w, pH 3.0, 70° C., Method 1
[2] = MeCN 44.5% w/w, pH 3.0, RT, Method 1
[3] = MeCN 44.5% w/w, pH 3.6, 5° C., Method 1
[4] = MeCN 44.5% w/w, pH 3.6, 70° C., Method 1
[5] = MeCN 44.5% w/w, pH 3.6, RT, Method 1
[6] = MeCN 44.5% w/w, pH 4.3, 5° C., Method 1
[7] = MeCN 44.5% w/w, pH 4.3, 70° C., Method 1
[8] = MeCN 44.5% w/w, pH 4.3, RT, Method 1
[9] = MeCN 44.5% w/w, pH 4.9, 5° C., Method 1
[10] = MeCN 44.5% w/w, pH 4.9, 70° C., Method 1
[11] = MeCN 44.5% w/w, pH 4.9, RT, Method 1
[12] = MeCN 44.5% w/w, pH 5.6, 5° C., Method 1
[13] = MeCN 44.5% w/w, pH 5.6, 70° C., Method 1
[14] = MeCN 44.5% w/w, pH 5.6, RT, Method 1
[15] = MeCN 44.5% w/w, pH 6.2, 5° C., Method 1
[16] = MeCN 44.5% w/w, pH 6.2, 70° C., Method 1
[17] = MeCN 44.5% w/w, pH 6.2, RT, Method 1
[18] = MeCN 44.5% w/w, pH 6.9, 5° C., Method 1
[19] = MeCN 44.5% w/w, pH 6.9, 70° C., Method 1
[20] = MeCN 44.5% w/w, pH 6.9, RT, Method 1
[21] = MeCN 44.5% w/w, pH 7.5, 5° C., Method 1
[22] = MeCN 44.5% w/w, pH 7.5, 70° C., Method 1
[23] = MeCN 44.5% w/w, pH 7.5, RT, Method 1
[24] = MeCN 44.5% w/w, pH 8.0, 70° C., Method 1 (evaporation)
[25] = MeCN 44.5% w/w, pH 8.0, RT, Method 1
[26] = MeCN 44.5% w/w, pH 8.5, 70° C., Method 1 (evaporation)
[27] = MeCN 44.5% w/w, pH 8.5, RT, Method 1
[28] = MeCN 44.5% w/w, pH 9.0, 70° C., Method 1 (evaporation)
[29] = MeCN 44.5% w/w, pH 9.0, RT, Method 1
[30] = MeCN 44.5% w/w, pH 9.5, 70° C., Method 1 (evaporation)
[31] = MeCN 44.5% w/w, pH 9.5, RT, Method 1
[32] = MeCN 44.5% w/w, pH 10.0, 70° C., Method 1 (evaporation)
[33] = MeCN 44.5% w/w, pH 10.0, RT, Method 1
[34] = MeCN 44.5% w/w, pH 10.5, 70° C., Method 1 (evaporation)
[35] = MeCN 44.5% w/w, pH 10.5, RT, Method 1
[36] = MeCN 44.5% w/w, pH 11.0, 70° C., Method 1 (evaporation)
[37] = MeCN 44.5% w/w, pH 11.0, RT, Method 1
[38] = MeCN 50.9% w/w, pH 3.0, 5° C., Method 1

- Peptide concentration after 24 h (MeCN 44.5% w/w, pH 3.0, 5° C., Method 1): 0.7 mg/mL
- Peptide concentration after 5 min [1]: 1.2 mg/mL
- Peptide concentration after 180 min [1]: 2.0 mg/mL
- Peptide concentration after 5 min [2]: 0.5 mg/mL
- Peptide concentration after 180 min [2]: 0.9 mg/mL
- Peptide concentration after 24 h [2]: 0.1 mg/mL
- Peptide concentration after 5 min [3]: 0.2 mg/mL
- Peptide concentration after 180 min [3]: 0.6 mg/mL
- Peptide concentration after 24 h [3]: 0.5 mg/mL
- Peptide concentration after 5 min [4]: 0.5 mg/mL
- Peptide concentration after 180 min [4]: 0.8 mg/mL
- Peptide concentration after 5 min [5]: 0.3 mg/mL
- Peptide concentration after 180 min [5]: 0.5 mg/mL
- Peptide concentration after 24 h [5]: 0.0 mg/mL
- Peptide concentration after 5 min [6]: 0.2 mg/mL
- Peptide concentration after 180 min [6]: 0.3 mg/mL
- Peptide concentration after 24 h [6]: 0.3 mg/mL
- Peptide concentration after 5 min [7]: 0.5 mg/mL
- Peptide concentration after 180 min [7]: 0.6 mg/mL
- Peptide concentration after 5 min [8]: 0.2 mg/mL
- Peptide concentration after 180 min [8]: 0.2 mg/mL
- Peptide concentration after 24 h [8]: 0.1 mg/mL
- Peptide concentration after 5 min [9]: 0.2 mg/mL
- Peptide concentration after 180 min [9]: 0.3 mg/mL
- Peptide concentration after 24 h [9]: 0.3 mg/mL
- Peptide concentration after 5 min [10]: 0.4 mg/mL
- Peptide concentration after 180 min [10]: 0.5 mg/mL
- Peptide concentration after 5 min [11]: 0.2 mg/mL
- Peptide concentration after 180 min [11]: 0.2 mg/mL
- Peptide concentration after 24 h [11]: 0.1 mg/mL
- Peptide concentration after 5 min [12]: 0.2 mg/mL
- Peptide concentration after 180 min [12]: 0.6 mg/mL
- Peptide concentration after 24 h [12]: 0.3 mg/mL
- Peptide concentration after 5 min [13]: 1.1 mg/mL
- Peptide concentration after 180 min [13]: 1.4 mg/mL
- Peptide concentration after 5 min [14]: 0.5 mg/mL
- Peptide concentration after 180 min [14]: 0.7 mg/mL
- Peptide concentration after 24 h [14]: 0.1 mg/mL
- Peptide concentration after 5 min [15]: 1.1 mg/mL
- Peptide concentration after 180 min [15]: 1.4 mg/mL
- Peptide concentration after 24 h [15]: 1.1 mg/mL
- Peptide concentration after 5 min [16]: 1.8 mg/mL
- Peptide concentration after 180 min [16]: 2.2 mg/mL
- Peptide concentration after 5 min [17]: 1.4 mg/mL
- Peptide concentration after 180 min [17]: 1.2 mg/mL
- Peptide concentration after 24 h [17]: 0.7 mg/mL
- Peptide concentration after 5 min [18]: 1.4 mg/mL
- Peptide concentration after 180 min [18]: 2.0 mg/mL
- Peptide concentration after 24 h [18]: 1.9 mg/mL
- Peptide concentration after 5 min [19]: 2.7 mg/mL
- Peptide concentration after 180 min [19]: >4.0 mg/mL
- Peptide concentration after 5 min [20]: 0.9 mg/mL
- Peptide concentration after 180 min [20]: 1.9 mg/mL
- Peptide concentration after 24 h [20]: 1.3 mg/mL
- Peptide concentration after 5 min [21]: 1.7 mg/mL
- Peptide concentration after 180 min [21]: >4.0 mg/mL
- Peptide concentration after 24 h [21]: >4.0 mg/mL
- Peptide concentration after 5 min [22]: >4.0 mg/mL
- Peptide concentration after 180 min [22]: >4.0 mg/mL
- Peptide concentration after 5 min [23]: 1.3 mg/mL
- Peptide concentration after 180 min [23]: >4.0 mg/mL
- Peptide concentration after 24 h [23]: >4.0 mg/mL
- Peptide concentration after 5 min [24]: 3.5 mg/mL
- Peptide concentration after 180 min [24]: >4.0 mg/mL
- Peptide concentration after 5 min [25]: 1.0 mg/mL
- Peptide concentration after 180 min [25]: >4.0 mg/mL
- Peptide concentration after 24 h [25]: >4.0 mg/mL
- Peptide concentration after 5 min [26]: 3.6 mg/mL
- Peptide concentration after 180 min [26]: >4.0 mg/mL
- Peptide concentration after 5 min [27]: 1.1 mg/mL
- Peptide concentration after 180 min [27]: 3.9 mg/mL
- Peptide concentration after 24 h [27]: >4.0 mg/mL
- Peptide concentration after 5 min [28]: 2.2 mg/mL
- Peptide concentration after 180 min [28]: >4.0 mg/mL
- Peptide concentration after 5 min [29]: 0.8 mg/mL
- Peptide concentration after 180 min [29]: 3.5 mg/mL
- Peptide concentration after 24 h [29]: >4.0 mg/mL
- Peptide concentration after 5 min [30]: >4.0 mg/mL
- Peptide concentration after 180 min [30]: >4.0 mg/mL
- Peptide concentration after 5 min [31]: 1.0 mg/mL
- Peptide concentration after 180 min [31]: >4.0 mg/mL
- Peptide concentration after 24 h [31]: >4.0 mg/mL
- Peptide concentration after 5 min [32]: >4.0 mg/mL
- Peptide concentration after 180 min [32]: >4.0 mg/mL
- Peptide concentration after 5 min [33]: 2.0 mg/mL
- Peptide concentration after 180 min [33]: >4.0 mg/mL
- Peptide concentration after 24 h [33]: 3.7 mg/mL
- Peptide concentration after 5 min [34]: >4.0 mg/mL
- Peptide concentration after 180 min [34]: >4.0 mg/mL
- Peptide concentration after 5 min [35]: 1.1 mg/mL
- Peptide concentration after 180 min [35]: >4.0 mg/mL
- Peptide concentration after 24 h [35]: 4.0 mg/mL
- Peptide concentration after 5 min [36]: 3.9 mg/mL
- Peptide concentration after 180 min [36]: >4.0 mg/mL
- Peptide concentration after 5 min [37]: 1.3 mg/mL
- Peptide concentration after 180 min [37]: >4.0 mg/mL
- Peptide concentration after 24 h [37]: >4.0 mg/mL
- Peptide concentration after 5 min [38]: 0.8 mg/mL
- Peptide concentration after 180 min [38]: 1.6 mg/mL
- Peptide concentration after 24 h [38]: 1.7 mg/mL
SMILES: CCCCCCCCCCCCCCCC(=O)N[C@@H](CCC(=O)NCCCC[C@H](NC(=O)[C@H](C)NC(=O)[C@H](C)NC(=O)[C@H](CCC(N)=O)NC(=O)CNC(=O)[C@H](CCC(=O)O)NC(=O)[C@H](CC(C)C)NC(=O)[C@H](Cc1ccc(O)cc1)NC(=O)[C@H](CO)NC(=O)[C@H](CO)NC(=O)[C@@H](NC(=O)[C@H](CC(=O)O)NC(=O)[C@H](CO)NC(=O)[C@@H](NC(=O)[C@H](Cc1ccccc1)NC(=O)[C@@H](NC(=O)CNC(=O)[C@H](CCC(=O)O)NC(=O)[C@H](C)NC(=O)[C@@H](N)Cc1cnc[nH]1)[C@@H](C)O)[C@@H](C)O)C(C)C)C(=O)N[C@@H](CCC(=O)O)C(=O)N[C@@H](Cc1ccccc1)C(=O)N[C@H](C(=O)N[C@@H](C)C(=O)N[C@@H](Cc1c[nH]c2ccccc12)C(=O)N[C@@H](CC(C)C)C(=O)N[C@H](C(=O)N[C@@H](CCCNC(=N)N)C(=O)NCC(=O)N[C@@H](CCCNC(=N)N)C(=O)NCC(=O)O)C(C)C)[C@@H](C)CC)C(=O)O [liraglutide, Arg34,Lys26-(N-epsilon-(gamma-L-glutamyl(N-alfa-hexadecanoyl)))-GLP-1(7-37)]
